{"sequences": {"note": "Protein sequences, listed by entry. Tags and fused reporters are not part of them. Residues count along the entry.", "UniProt P21802, 22-821": "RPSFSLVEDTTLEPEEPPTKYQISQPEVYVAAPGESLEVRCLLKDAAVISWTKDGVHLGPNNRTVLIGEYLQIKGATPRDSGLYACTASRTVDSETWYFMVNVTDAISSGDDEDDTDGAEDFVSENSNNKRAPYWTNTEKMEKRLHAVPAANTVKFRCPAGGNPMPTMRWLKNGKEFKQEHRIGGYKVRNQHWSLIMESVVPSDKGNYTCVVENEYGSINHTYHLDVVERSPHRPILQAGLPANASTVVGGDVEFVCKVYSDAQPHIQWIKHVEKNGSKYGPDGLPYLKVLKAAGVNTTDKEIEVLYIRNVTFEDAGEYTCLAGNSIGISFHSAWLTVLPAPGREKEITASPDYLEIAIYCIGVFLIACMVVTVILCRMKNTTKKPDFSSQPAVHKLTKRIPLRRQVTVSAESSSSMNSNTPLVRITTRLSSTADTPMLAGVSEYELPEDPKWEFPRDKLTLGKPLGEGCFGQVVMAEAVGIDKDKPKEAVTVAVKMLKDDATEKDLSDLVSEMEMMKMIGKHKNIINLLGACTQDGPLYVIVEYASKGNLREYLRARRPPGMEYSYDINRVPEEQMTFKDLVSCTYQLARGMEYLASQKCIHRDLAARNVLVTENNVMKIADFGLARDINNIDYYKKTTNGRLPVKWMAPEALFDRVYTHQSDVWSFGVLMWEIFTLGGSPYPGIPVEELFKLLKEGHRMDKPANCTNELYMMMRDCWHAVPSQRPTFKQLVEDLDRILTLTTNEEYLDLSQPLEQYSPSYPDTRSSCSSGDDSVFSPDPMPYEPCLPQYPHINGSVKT"}, "source": "patent US11406720B2", "about": "“Fibroblast growth factor receptor 2-specific peptide reagents and methods” (THE REGENTS OF THE UNIVERSITY OF MICHIGAN, priority 2017, dated 2022)", "biological_target": "T1, QhTERT cells that express FGFR2c (Homo sapiens, UniProt P21802)", "T1 construct": "expressed in transfected cells; host or cells: QhTERT (human non-dysplastic Barrett's esophagus cells immortalized with hTert)", "experiment": "Apparent dissociation constant by flow cytometry", "type": "binding", "conditions": "0 to 200 nM, 4° C, 1 hour", "experimental": "We measured the apparent dissociation constant kd for peptide reagent binding to cells to assess binding affinity.^45 The Cy5.5-labeled peptide reagent was serially diluted in PBS at concentrations ranging from 0 to 200 nM in 25 nM increments. QhTERT/FGFR2c cells (˜10^5) were incubated with peptide at 4° C. for 1 hour, washed with cold PBS, and the mean fluorescence intensities were measured using flow cytometry. The equilibrium dissociation constant kd=1/ka was calculated by performing a least squares fit of the data to the non-linear equation I=(I0+Imaxka[X])/([…]). I0 and Imax are the initial and maximum fluorescence intensities, corresponding to no peptide and at saturation, respectively, and [X] represents the concentration of the bound peptide reagent. Prism 5.0 software (GraphPad Inc) was used to calculate kd.", "note": "At least one structure is not confirmed: it was looked up by name or label, or the drawing left a doubt.", "data": [{"compound": "C[C@H](NC(=O)[C@@H](NC(=O)[C@H](CCCNC(=N)N)NC(=O)[C@H](Cc1ccccc1)NC(=O)[C@H](CO)NC(=O)[C@H](C)NC(=O)[C@@H]1CCCN1C(=O)[C@H](CCCNC(=N)N)NC(=O)[C@H](CCCNC(=N)N)NC(=O)[C@@H](N)CO)[C@@H](C)O)C(=O)N[C@@H](CCCNC(=N)N)C(=O)N[C@@H](CCC(=O)O)C(N)=O", "note": "(relative stereo) [SRR*, SRRPASFRTARE]", "values": [{"measurement": "Kd", "result": 67.9, "unit": "nM"}]}]}
